System: scopolamine-induced memory impairment in mice
Assay: Novel object recognition test (NORT), scopolamine-induced amnesia
Assay type: in vivo, Albino mice
Procedure: Albino mice (20–23 g b. w.) were brought from National Institute of Health, Islamabad, Pakistan, and the mice were retained in animal house at University of Malakand at Department of Pharmacy for acclimation. Normal pellet diet and water were provided to all the animals and were kept for 12 h of light-dark cycle under normal laboratory conditions (temperature in a range of 25 ± 2 °C, humidity of 56–66%). All protocols employed were approved from the Ethical Committee vide notification Pharm/EC-QRE/10–31/25 as per approved “Animal Bye-Laws 2008, Scientific Procedures Issue-I of the Malakand University” and the UK animal scientific procedure act (1986).
After acclimatization, the animals were grouped into different groups consisting of 6 animals each. […] It also can induce amyloid β deposition, oxidative stress, synaptic dysfunction, and learning/memory impairment in experimental animals. […] The treatment was carried out continuously for 7 days and after treatment schedule, the animals were subjected to behavioural study using Y-maze and NORT.
NORT was used to assess the effect of vanillin derivatives on memory in mice model. The apparatus employed in this test measures 40 cm wide, 40 cm long, and 66 cm tall. NORT entails a two-day habituation period, followed by a two-day training session and finally a testing or experimental period. During habituation, an empty box was used, two identical objects were placed in two corners of the box during training, and one unique object was replaced during testing as shown in Fig. 3. To test long-term memory in mice, a five-day washout period was provided before the NORT. The time spent in each phase was manually documented using a stopwatch.
Fig. 3 Procedures for novel object recognition (NORT). The three phases of the test are shown. In NORT, object identity is changed between training and test; object location is remained unchanged.

CN1[C@@H]2C[C@@H](OC(=O)[C@H](CO)c3ccccc3)C[C@H]1[C@@H]1O[C@@H]12 [Scopolamine]
time spent with the familiar object F in NOR test (scopolamine group compared with control group treated with galantamine, P < 0.001): significant increase
latency time to discover familiar object (F) in NOR test (scopolamine group compared with control group treated with galantamine, p < 0.001): significant increase
discrimination index in NOR test (scopolamine-treated group): 1.43%

Reference: publication PMC10901097, “Vanillin derivatives as antiamnesic agents in scopolamine-induced memory impairment in mice” (Heliyon, 2024)
